Test results as given in patent publication US20190106510A1 (CELLDEX THERAPEUTICS, published 2019).
Substitutions are numbered along the chain they refer to. These are yes or no findings as the source states them, for the method shown. Some entries that bind do so weakly or less than the wild type.

Protein sequences, listed by entry. Tags and fused reporters are not part of them. Lines headed by an entry give the natural chain unless they say otherwise; changes in a name come on top. Residues count along the entry.
UniProt P10721: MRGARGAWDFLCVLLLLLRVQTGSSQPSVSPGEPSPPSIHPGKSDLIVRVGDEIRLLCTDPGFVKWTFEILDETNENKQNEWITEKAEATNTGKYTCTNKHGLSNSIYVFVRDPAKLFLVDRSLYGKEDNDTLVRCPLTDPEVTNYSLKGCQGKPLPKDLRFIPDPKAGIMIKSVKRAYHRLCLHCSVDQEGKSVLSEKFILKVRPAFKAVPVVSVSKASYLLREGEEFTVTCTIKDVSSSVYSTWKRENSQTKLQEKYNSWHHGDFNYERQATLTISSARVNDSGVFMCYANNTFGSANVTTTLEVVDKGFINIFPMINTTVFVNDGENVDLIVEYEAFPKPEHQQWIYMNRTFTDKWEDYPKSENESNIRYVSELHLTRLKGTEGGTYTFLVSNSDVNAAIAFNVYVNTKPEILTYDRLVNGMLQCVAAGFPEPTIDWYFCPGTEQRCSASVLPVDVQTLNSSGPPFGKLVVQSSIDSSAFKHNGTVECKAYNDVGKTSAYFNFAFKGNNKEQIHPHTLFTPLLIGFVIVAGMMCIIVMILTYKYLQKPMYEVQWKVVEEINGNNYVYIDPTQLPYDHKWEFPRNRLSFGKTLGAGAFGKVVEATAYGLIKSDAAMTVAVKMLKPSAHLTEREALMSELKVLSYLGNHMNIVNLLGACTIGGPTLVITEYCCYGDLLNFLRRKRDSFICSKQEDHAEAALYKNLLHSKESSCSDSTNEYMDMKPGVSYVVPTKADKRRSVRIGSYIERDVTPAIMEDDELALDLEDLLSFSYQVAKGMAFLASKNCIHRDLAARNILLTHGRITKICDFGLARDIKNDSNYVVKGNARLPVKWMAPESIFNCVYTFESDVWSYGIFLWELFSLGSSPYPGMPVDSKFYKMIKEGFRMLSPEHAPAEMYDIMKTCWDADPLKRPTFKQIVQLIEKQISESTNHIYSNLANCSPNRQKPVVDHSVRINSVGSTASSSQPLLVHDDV
UniProt O97799, residues 28-527: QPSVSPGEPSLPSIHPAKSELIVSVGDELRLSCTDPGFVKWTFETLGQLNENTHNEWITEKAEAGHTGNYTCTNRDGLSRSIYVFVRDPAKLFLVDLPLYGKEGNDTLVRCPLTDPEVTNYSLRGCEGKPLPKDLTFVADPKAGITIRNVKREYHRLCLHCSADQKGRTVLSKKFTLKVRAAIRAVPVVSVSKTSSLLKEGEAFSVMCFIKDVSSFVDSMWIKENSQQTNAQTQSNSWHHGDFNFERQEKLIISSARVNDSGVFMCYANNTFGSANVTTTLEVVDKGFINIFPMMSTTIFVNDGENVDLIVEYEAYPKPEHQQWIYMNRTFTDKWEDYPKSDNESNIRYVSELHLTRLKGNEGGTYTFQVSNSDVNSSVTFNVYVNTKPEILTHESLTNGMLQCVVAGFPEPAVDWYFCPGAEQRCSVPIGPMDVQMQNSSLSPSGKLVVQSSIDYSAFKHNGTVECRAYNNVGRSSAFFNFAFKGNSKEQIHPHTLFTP

B1: Hum8 (antibody, V domains shown)
VH: QVQLVQSGAEVKKPGASVKLSCKASGYTFTDYYINWVRQAPGKGLEWIARIYPGSGNTYYNEKFKGRATLTADKSTSTAYMQLSSLRSEDTAVYFCARGVYYFDYWGQGTTVTVSS
VL: DIVMTQSPSSLSASVGDRVTITCKASQNVRTNVAWYQQKPGKAPKALIYSASYRYSGVPDRFTGSGSGTDFTLTISSLQPEDFADYFCQQYNSYPRTFGGGTKVEIK
B2: Hum4 (antibody, V domains shown)
VH: B1 VH with L20V, L70I, Q82E
VL: B1 VL with S10F, P80S
B3: Hum10 (antibody, V domains shown)
VH: B1 VH with L20V, A68V, L70I, Q82E
VL: B1 VL
B4: Hum17 (antibody, V domains shown)
VH: B1 VH with R38K, D73E
VL: B1 VL with A46S, T63S, D85T, F87Y

Biological target: human KIT (human) (UniProt P10721)
Experiment: additional binding assays (format not described)

binding, binds:
B1, B2, B3, B4

Biological target: canine KIT (canine) (UniProt O97799)
Experiment: additional binding assays (format not described)

binding, binds:
B1, B2, B3, B4
